Measurements from patent US20180362893A1, “COMPOSITIONS COMPRISING AN ULTRAVIOLET INDICATOR” (Chemia Corporation, priority 2015, published 2018).

Experiment: Fluorescing fragrances: UV indication and boosting of UV indicator fluorescence
Assay type: physicochemical
Details: for UV Booster: fragrance boosts fluorescence of UV indicators (s-5 white grains); for UV Indicator: fragrance ingredient itself provides UV indication

CC1(C)CCC[C@]2(C)[C@H]3CCO[C@]3(C)CC[C@@H]12 [Ambrox]
UV Booster: Yes | UV Indicator: Yes

O=C(c1ccccc1)c1ccccc1 [Benzophenone]
UV Booster: Yes | UV Indicator: Yes

O=c1ccc2ccccc2o1 [Coumarin]
UV Booster: Yes | UV Indicator: Yes

Cc1occc(=O)c1O [Veltol (Maltol), Maltol]
UV Booster: Yes | UV Indicator: Yes

COC(=O)c1c(C)cc(O)c(C)c1O [Veramoss]
UV Booster: Yes | UV Indicator: Yes
